These are yes or no findings as the source states them, for the method shown. Binding seen in cells or lysates may run through a third protein. Some results given as binding are weak or reduced against the parent protein; the word gives no strength. Tags and fused reporters may be left off the sequences shown.
T1: nLUC-ZEP (Arabidopsis thaliana) (UniProt Q9FGC7)
T1 sequence: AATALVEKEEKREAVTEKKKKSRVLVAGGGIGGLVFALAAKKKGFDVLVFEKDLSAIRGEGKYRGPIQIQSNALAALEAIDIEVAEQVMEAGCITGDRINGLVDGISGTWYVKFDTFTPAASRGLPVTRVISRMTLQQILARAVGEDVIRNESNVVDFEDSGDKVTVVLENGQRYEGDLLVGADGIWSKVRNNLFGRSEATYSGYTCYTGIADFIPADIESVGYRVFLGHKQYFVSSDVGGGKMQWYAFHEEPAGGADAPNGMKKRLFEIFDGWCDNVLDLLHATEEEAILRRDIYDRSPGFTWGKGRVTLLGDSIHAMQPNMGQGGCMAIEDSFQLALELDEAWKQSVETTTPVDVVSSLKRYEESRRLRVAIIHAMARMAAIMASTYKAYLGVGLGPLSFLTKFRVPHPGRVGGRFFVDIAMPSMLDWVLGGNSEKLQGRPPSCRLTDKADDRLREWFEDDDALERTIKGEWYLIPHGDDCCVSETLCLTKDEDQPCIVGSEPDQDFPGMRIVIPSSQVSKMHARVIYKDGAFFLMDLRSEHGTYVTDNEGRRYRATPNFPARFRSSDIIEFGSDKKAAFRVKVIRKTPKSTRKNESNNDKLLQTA

T2: cYFP-ZEP (Arabidopsis thaliana) (UniProt Q9FGC7)
T2 sequence: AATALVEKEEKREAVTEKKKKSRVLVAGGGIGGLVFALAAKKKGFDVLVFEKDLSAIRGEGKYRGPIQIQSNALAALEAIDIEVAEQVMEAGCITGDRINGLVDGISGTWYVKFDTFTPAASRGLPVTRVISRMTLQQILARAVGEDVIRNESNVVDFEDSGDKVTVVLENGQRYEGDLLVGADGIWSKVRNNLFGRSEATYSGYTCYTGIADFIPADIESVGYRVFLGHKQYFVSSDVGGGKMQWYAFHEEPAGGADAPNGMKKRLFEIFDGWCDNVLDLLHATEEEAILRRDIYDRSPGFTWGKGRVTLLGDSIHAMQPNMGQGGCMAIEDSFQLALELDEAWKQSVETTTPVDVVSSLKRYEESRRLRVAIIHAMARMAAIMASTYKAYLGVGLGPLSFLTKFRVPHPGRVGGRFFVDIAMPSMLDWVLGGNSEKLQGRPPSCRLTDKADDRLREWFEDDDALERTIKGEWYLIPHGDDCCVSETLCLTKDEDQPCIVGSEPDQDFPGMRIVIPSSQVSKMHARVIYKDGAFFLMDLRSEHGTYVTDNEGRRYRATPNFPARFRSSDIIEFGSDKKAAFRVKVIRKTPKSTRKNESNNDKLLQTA


Assays:
[1] = biological target: T1, nLUC-ZEP (Arabidopsis thaliana); test: split reporter; split-luciferase complementation in intact N. benthamiana leaves; high light (600 µmol m-2 s-1) for 3 h at 2 dpi, 1 mM d-luciferin, CCD imaging; empty nLUC and cLUC as negative controls
[2] = biological target: T2, cYFP-ZEP (Arabidopsis thaliana); test: split reporter; BiFC with split YFP in mesophyll cells of tobacco leaves, confocal microscopy; empty vector combinations as negative controls

| Binder | binding [1] | binding [2] |
| --- | --- | --- |
| cLUC-PsbS (protein, UniProt Q9XF91 60-265) AAPKKVEKPKSKVEDGIFGTSGGIGFTKANELFVGRVAMIGFAASLLGEALTGKGILAQLNLETGIPIYEAEPLLLFFILFTLLGAIGALGDRGKFVDDPPTGLEKAVIPPGKNVRSALGLKEQGPLFGFTKANELFVGRLAQLGIAFSLIGEIITGKGALAQLNIETGIPIQDIEPLVLLNVAFFFFAAINPGNGKFITDDGEES | binds | – |
| PsbS-nYFP (protein, UniProt Q9XF91 60-265) AAPKKVEKPKSKVEDGIFGTSGGIGFTKANELFVGRVAMIGFAASLLGEALTGKGILAQLNLETGIPIYEAEPLLLFFILFTLLGAIGALGDRGKFVDDPPTGLEKAVIPPGKNVRSALGLKEQGPLFGFTKANELFVGRLAQLGIAFSLIGEIITGKGALAQLNIETGIPIQDIEPLVLLNVAFFFFAAINPGNGKFITDDGEES | – | binds |
